# Measured values reported in the supplement of paper PMC9454738.
# The list shows a part of the results. Repeats in this data set agree poorly, so a single value says little.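 Triple-negative MDA-MB-231 breast cancer cells and their brain-metastatic MDA-MB-231BRM derivative each stably expressed empty vector, full-length GLI1 or truncated tGLI1. CellTiter-Blue measured viability at 48 h relative to 1% DMSO vehicle. Compounds reducing viability 20% more in tGLI1 cells than in vector and GLI1 cells counted as tGLI1-selective.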
# Experiments:
# Assay in all cases: cell viability relative to vehicle (DMSO) control (fraction); higher = more viable cells (less growth inhibition)
# Settings in all cases: treatment time 48 h
# MDA-MB-231 GLI1 = system: MDA-MB-231 GLI1
# MDA-MB-231 Vector = system: MDA-MB-231 Vector
# MDA-MB-231 tGLI1 = system: MDA-MB-231 tGLI1
# MDA-MB-231BRM GLI1 = system: MDA-MB-231BRM GLI1
# MDA-MB-231BRM Vector = system: MDA-MB-231BRM Vector
# MDA-MB-231BRM tGLI1 = system: MDA-MB-231BRM tGLI1
Structure (SMILES),cell viability (MDA-MB-231 GLI1; 0.05 µM),cell viability (MDA-MB-231 GLI1; 0.5 µM),cell viability (MDA-MB-231 GLI1; 5 µM),cell viability (MDA-MB-231 Vector; 0.05 µM),cell viability (MDA-MB-231 Vector; 0.5 µM),cell viability (MDA-MB-231 Vector; 5 µM),cell viability (MDA-MB-231 tGLI1; 0.05 µM),cell viability (MDA-MB-231 tGLI1; 0.5 µM),cell viability (MDA-MB-231 tGLI1; 5 µM),cell viability (MDA-MB-231BRM GLI1; 0.05 µM),cell viability (MDA-MB-231BRM GLI1; 0.5 µM),cell viability (MDA-MB-231BRM GLI1; 5 µM),cell viability (MDA-MB-231BRM Vector; 0.05 µM),cell viability (MDA-MB-231BRM Vector; 0.5 µM),cell viability (MDA-MB-231BRM Vector; 5 µM),cell viability (MDA-MB-231BRM tGLI1; 0.05 µM),cell viability (MDA-MB-231BRM tGLI1; 0.5 µM),cell viability (MDA-MB-231BRM tGLI1; 5 µM)
CN(C)c1ccc(-c2nc3ncc(Cl)c(N4CCN(CC(=O)Nc5nccs5)CC4)c3[nH]2)cc1,1.01,0.822,0.271,0.938,0.807,0.449,0.972,0.89,0.599,1.1,1.2,1.1,1.18,0.999,0.724,0.686,1.14,0.992
CC(=O)c1c(C)c2cnc(Nc3ccc(N4CCNCC4)cn3)nc2n(C2CCCC2)c1=O,1.15,1.1,0.598,1.26,0.888,0.571,0.874,1.15,0.491,0.893,0.882,0.839,0.874,0.793,0.922,0.878,0.822,0.861
O=c1cc(N2CCOCC2)oc2c(-c3ccccc3)cccc12,1.48,1.64,0.872,1.41,1.26,0.827,1.22,1.35,0.812,0.983,0.975,0.97,0.99,0.903,0.947,0.916,0.922,0.954
O=C(NCc1ccccc1)c1csc(Nc2ccncn2)n1 [Thiazovivin],1.51,1.51,1.63,2.07,1.36,1.33,1.33,1.43,0.762,1.14,1.19,0.944,1.24,1.11,1.05,1.07,0.68,1.03
CS(=O)(=O)N1CCc2c(-c3cnc(N)nc3)nc(N3CCOCC3)nc21,1.07,1.04,0.3,1.11,1.08,0.449,1.22,0.938,0.29,0.968,0.963,0.867,1.03,1.02,0.801,1.04,1.02,0.644
O=C1NC(=O)C(c2cnc3ccccn23)=C1c1cn2c3c(cc(F)cc13)CN(C(=O)N1CCCCC1)CC2,0.837,1.27,0.909,0.861,1.17,0.658,0.801,1.21,1.11,1.01,1.08,0.978,1.12,1.13,1.03,1.13,1.06,1.06
Cc1ccc(NC(=O)c2cccc(C(C)(C)C#N)c2)cc1Nc1ccc2ncn(C)c(=O)c2c1,0.864,0.544,0.512,0.63,0.561,0.571,0.792,0.544,0.488,1.08,1.03,0.55,1.16,1.02,0.605,1.07,1.04,0.399
COc1ncc(-c2ccc3nccc(-c4ccnnc4)c3c2)cc1NS(=O)(=O)c1ccc(F)cc1F,0.669,0.392,0.262,0.612,0.475,0.448,0.638,0.375,0.307,0.986,1.02,0.984,1.02,1.04,0.939,0.99,0.952,0.876
C#Cc1cccc(Nc2ncnc3cc4c(cc23)OCCOCCOCCO4)c1 [Icotinib],1.15,1.52,0.96,1.03,1.22,1.18,1.09,1.22,1.07,1.1,0.907,0.891,1.13,1.01,0.895,1,0.939,0.888
CC(C)(C)c1cc(C(C)(C)C)c(NC(=O)c2c[nH]c3ccccc3c2=O)cc1O [Ivacaftor (VX-770)],1.11,0.979,0.458,0.959,1.15,0.344,0.975,1,0.308,0.95,0.999,0.757,0.937,0.881,0.855,0.977,0.963,0.901
CC(C)(C)c1cc(NC(=O)Nc2ccc(-c3cn4c(n3)sc3cc(OCCN5CCOCC5)ccc34)cc2)no1 [Quizartinib (AC220)],1.28,1.18,1.56,1.98,1.42,1.22,0.551,1.25,1.45,1.32,0.574,1.11,0.738,0.944,0.721,0.631,1.1,0.509
CC(=O)O[C@@]12CO[C@@H]1C[C@H](O)[C@@]1(C)C(=O)[C@H](O)C3=C(C)[C@@H](OC(=O)[C@H](O)[C@@H](NC(=O)OC(C)(C)C)c4ccccc4)C[C@@](O)([C@@H](OC(=O)c4ccccc4)[C@H]21)C3(C)C [Docetaxel (Taxotere)],0,-0.0584,0.00987,-0.29,-0.301,-0.173,-0.0867,-0.155,-0.0643,0.891,0.833,0.754,0.904,0.817,0.904,0.941,0.809,0.879
COc1cc2/c(=N/c3ccc(Br)cc3F)nc[nH]c2cc1OCC1CCN(C)CC1 [Vandetanib (ZD6474)],1.37,1.76,0.97,1.22,1.2,0.75,1.2,1.51,0.927,0.931,0.945,0.938,0.912,0.907,0.972,1.03,0.949,0.933
COc1ccc(S(=O)(=O)N(CCO)c2ccccc2CN(C)C/C=C/c2ccc(Cl)cc2)cc1 [KN-93 Phosphate],1.22,1.41,1.02,0.444,0.561,0.248,0.414,0.564,0.477,0.528,0.485,0.54,0.661,0.539,0.501,0.768,0.716,0.703
CNC(=O)c1cc(Oc2ccc(NC(=O)Nc3ccc(Cl)c(C(F)(F)F)c3)cc2)ccn1 [Sorafenib],1.12,1.62,0.6,0.663,0.557,0.365,0.614,0.56,0.427,0.561,0.684,0.423,0.512,0.665,0.404,0.809,0.724,0.711
CNC(=O)c1cc(COc2nnc(Nc3ccc(Cl)cc3)c3ccoc23)ccn1 [Telatinib],0.828,1.01,0.816,0.948,1.31,0.748,1.14,1.05,0.672,0.989,0.928,1.09,1.07,1.02,1.16,1.07,1.03,1.03
Clc1ccc(C2(c3ccc(-c4cn[nH]c4)cc3)CCNCC2)cc1,1.48,1.57,0.9,1.93,1.18,0.648,1.26,1.34,0.706,1.22,1.23,0.958,0.732,1.12,1.05,0.601,1.16,0.957
CCCCOc1c(C(=O)c2c(F)cc(C)cc2F)c[nH]c2nncc1-2,1.24,0.998,0.326,1.74,1.3,0.277,0.849,0.87,0.221,0.817,1.24,0.973,1.16,1.21,1.17,1.18,1.27,0.545
COCC(=O)NC/C=C/c1ccc2ncnc(Nc3ccc(Oc4ccc(C)nc4)c(C)c3)c2c1,1.5,1.78,1.29,1.4,1.33,1.04,1.19,1.43,1.08,0.96,1,0.935,1.02,0.977,0.949,0.995,0.895,0.931
COC(=O)Nc1ccc(-c2nc(N3CCOCC3)c3cnn(C4CCN(C(=O)OC)CC4)c3n2)cc1,1.1,0.495,0.285,1.58,0.521,0.293,0.478,0.487,0.254,1.07,0.836,0.345,0.54,0.779,0.585,0.915,0.743,0.598
COc1cc2ncnc(Nc3ccc(Cl)cc3F)c2cc1OC,1.07,1.45,1.2,0.896,1.35,1.3,0.866,1.34,1.14,0.933,0.93,0.938,1.01,1.03,0.964,0.999,0.944,0.929
CNC(=O)Nc1ccc(-c2nc(N3CC4CCC(C3)O4)c3cnn(C4CCC5(CC4)OCCO5)c3n2)cc1,0.55,0.369,0.229,0.484,0.37,0.329,0.521,0.331,0.218,0.899,0.913,0.764,0.964,0.969,0.751,0.932,0.861,0.562
O=C(NCc1cccc(O)c1)Nc1nc(-c2ccncc2)cs1,1.28,1.32,0.713,1.25,1.18,0.808,1.29,1.05,0.709,1.26,1.09,1.08,1.24,1.16,1.09,1.13,1.05,1.01
NC[C@@](O)(c1ccc(Cl)cc1)c1ccc(-c2cn[nH]c2)cc1,2.37,2.74,0.437,1.46,1.11,0.214,1.53,1.33,0.322,0.822,0.888,0.917,0.977,0.885,0.876,1.28,1.11,1.2
CNC(=O)c1cc(Oc2ccc(NC(=O)Nc3cc(C(C)(C)C)nn3-c3ccc4ncccc4c3)c(F)c2)ccn1 [DCC-2036 (Rebastinib)],1.29,1.08,0.0137,1.23,1.11,0.118,1.36,0.968,0.0451,1.07,1.15,0.895,1.06,1.1,0.882,1.08,1.18,0.854
CN1CCN(c2cccc(Nc3nc4c(-c5ccc(S(C)(=O)=O)cc5)cccn4n3)c2)CC1,1.2,1.17,0.888,1.3,1.2,0.755,1.35,1.17,0.855,1.02,0.992,0.901,1.01,0.997,0.406,1.07,0.964,0.785
CC(C)(C)NS(=O)(=O)c1cncc(-c2cc(F)c3nc(N)nn3c2)c1,0.969,1.27,0.921,1.13,1.2,1.05,1.02,1.18,1.03,1,1.02,0.865,1.04,1.04,1.02,1.03,0.993,1.02

# Whole records as entered above. Order of values: cell viability (MDA-MB-231 GLI1; 0.05 µM)	cell viability (MDA-MB-231 GLI1; 0.5 µM)	cell viability (MDA-MB-231 GLI1; 5 µM)	cell viability (MDA-MB-231 Vector; 0.05 µM)	cell viability (MDA-MB-231 Vector; 0.5 µM)	cell viability (MDA-MB-231 Vector; 5 µM)	cell viability (MDA-MB-231 tGLI1; 0.05 µM)	cell viability (MDA-MB-231 tGLI1; 0.5 µM)	cell viability (MDA-MB-231 tGLI1; 5 µM)	cell viability (MDA-MB-231BRM GLI1; 0.05 µM)	cell viability (MDA-MB-231BRM GLI1; 0.5 µM)	cell viability (MDA-MB-231BRM GLI1; 5 µM)	cell viability (MDA-MB-231BRM Vector; 0.05 µM)	cell viability (MDA-MB-231BRM Vector; 0.5 µM)	cell viability (MDA-MB-231BRM Vector; 5 µM)	cell viability (MDA-MB-231BRM tGLI1; 0.05 µM)	cell viability (MDA-MB-231BRM tGLI1; 0.5 µM)	cell viability (MDA-MB-231BRM tGLI1; 5 µM)
# CN(C)c1ccc(-c2nc3ncc(Cl)c(N4CCN(CC(=O)Nc5nccs5)CC4)c3[nH]2)cc1 as listed: 1.01	0.822	0.271	0.938	0.807	0.449	0.972	0.89	0.599	1.1	1.2	1.1	1.18	0.999	0.724	0.686	1.14	0.992
# CC(=O)c1c(C)c2cnc(Nc3ccc(N4CCNCC4)cn3)nc2n(C2CCCC2)c1=O as listed: 1.15	1.1	0.598	1.26	0.888	0.571	0.874	1.15	0.491	0.893	0.882	0.839	0.874	0.793	0.922	0.878	0.822	0.861
